Taken from: PubChem BioAssay AID1508588 (Peter MacCallum Cancer Centre, 2020)
In all, the deposit lists about 18,000 reagents; this is a part drawn at random. Over the whole deposit, 790 (4.4%) were called active. 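Calls rest on a combination of fold-change classes in drug and vehicle arms, not all shown here.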

Screen: 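Which gene losses make BRAF-mutant melanoma cells more responsive to vemurafenib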 (primary screen)
System: human WM266.4 melanoma cells (BRAF V600 mutant)
Reagents: siRNA pool against human genes, 40 nM
Time to read-out: 96 h from transfection to read-out
Challenge: vemurafenib 300 nM (about IC25), added 48 h after transfection, for 48 h; comparison arm got DMSO vehicle only
Measured: 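Cell gain (DAPI nuclei at end minus before drug, mean of two replicates) and medium lactate by absorbance per cell, both as ratio to non-targeting siRNA, also grouped into fold-change classes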
Scale: cell gain with vemurafenib: higher = more cell gain than with non-targeting siRNA; lactate per cell with vemurafenib: higher = more lactate made per cell
Hit rule: 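Enhancement is called by pairing each knock-down's vehicle-arm and drug-arm fold-change classes for viability or glycolysis; which class combinations qualify is not given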
Meaning of the calls: active = enhances vemurafenib effect; inactive = no enhancement seen

no.	gene	cell gain with vemurafenib	lactate per cell with vemurafenib	activity call
1	SIGLEC12 (sialic acid binding Ig like lectin 12)	0.46	0.88	inactive
2	BRDT (bromodomain testis associated)	0.84	1.05	inactive
3	RFFL	0.97	0.82	inactive
4	NRN1L (neuritin 1 like)	0.49	1.21	inactive
5	S100A6 (S100 calcium binding protein A6)	0.53	0.68	inactive
6	ZNF577 (zinc finger protein 577)	0.19	1.2	inactive
7	VN1R4 (vomeronasal 1 receptor 4)	0.81	0.75	inactive
8	TCP10L (t-complex 10 like)	0.79	0.34	inactive
9	AGO2 (argonaute RISC catalytic component 2)	0.88	0.93	inactive
10	MGAT5	0.77	0.67	inactive
11	GPA33 (glycoprotein A33)	0.77	0.54	inactive
12	FOXR2 (forkhead box R2)	0.42	1.62	inactive
13	PCDH11Y (protocadherin 11 Y-linked)	0.99	0.62	inactive
14	ENAH (ENAH actin regulator)	0.66	0.62	inactive
15	ST18 (ST18 C2H2C-type zinc finger transcription factor)	1.17	0.82	inactive
16	FOXP4 (forkhead box P4)	0.44	1.49	inactive
17	GLI4 (GLI family zinc finger 4)	0.91	0.39	inactive
18	TRIM23 (tripartite motif containing 23)	1.01	0.82	inactive
19	TMEM171 (transmembrane protein 171)	0.62	1.21	inactive
20	PARD6B (par-6 family cell polarity regulator beta)	0.52	1.44	inactive
21	ABL2 (ABL proto-oncogene 2, non-receptor tyrosine kinase)	0.37	1.12	inactive
22	EGR2 (early growth response 2)	0.5	0.86	inactive
23	COMMD5 (COMM domain containing 5)	0.63	1.28	inactive
24	PDIA3 (protein disulfide isomerase family A member 3)	0.2	1.02	inactive
25	ANKRD13A (ankyrin repeat domain 13A)	0.33	1.42	inactive
26	ZCRB1 (zinc finger CCHC-type and RNA binding motif containing 1)	0.52	1.61	inactive
27	PRAMEF4 (PRAME family member 4)	0.25	1.82	inactive
28	TMUB1 (transmembrane and ubiquitin like domain containing 1)	0.37	1.08	inactive
29	DCP1A (decapping mRNA 1A)	0.32	2	inactive
30	CSF2RA (colony stimulating factor 2 receptor subunit alpha)	0.69	0.64	inactive
31	RFX4 (regulatory factor X4)	0.78	1.23	inactive
32	SAXO4 (stabilizer of axonemal microtubules 4)	0.58	0.56	inactive
33	HAGHL (hydroxyacylglutathione hydrolase like)	0.94	0.58	inactive
34	SPATA8 (spermatogenesis associated 8)	0.64	1	inactive

3 of these entries, reformatted.
{"gene": "BRDT (bromodomain testis associated)", "cell gain with vemurafenib": 0.84, "lactate per cell with vemurafenib": 1.05, "activity call": "inactive"}
{"gene": "RFFL", "cell gain with vemurafenib": 0.97, "lactate per cell with vemurafenib": 0.82, "activity call": "inactive"}
{"gene": "NRN1L (neuritin 1 like)", "cell gain with vemurafenib": 0.49, "lactate per cell with vemurafenib": 1.21, "activity call": "inactive"}
